No constants are given. Whether binding was seen depends on the method and setting.

The experiment addresses GST-E1A-C* (adenovirus) (UniProt P03254). Briefly: pull-down; GST fusion proteins charged on glutathione-agarose beads, incubated with purified H6-CtBP2 or H6-RR-CtBP2 (~0.1 μg) in 200 μl of 25 mM Tris-HCl pH 7.5, 0.25 M NaCl, 0.5% Triton X-100, 0.5 mM DTT for 1 h at 4°C; Western blot with the CtBP2 antibody; both purified.

With H6-CtBP2 (from UniProt P56545 1-445), the binding entry is listed as “no binding (tested: ~0.1 μg in 200 μl)”.
